The list shows a part of the results.
The targets below were run with COc1ccc(Cn2ccc3cc(C)c(C(=O)NO)cc32)cc1 (assay: dose-dependent thermal stabilisation call (2D-TPP, DLPTP, 10% FDR) (binary (1 = stabilised)); higher = stabilised by the compound). Conditions: system: HL-60 intact cells; concentration range 0.04-10 µM.
Method: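 2D thermal proteome profiling in intact HL-60 cells treated with BRD-3811 (0, 0.04, 0.29, 2, 10 uM) for 90 min at 37 C, then heated 3 min at one of 12 temperatures (42-63.9 C). Soluble protein was quantified by TMT10 MS. The value is the DLPTP call of the paper: dose-dependent thermal stabilisation over all temperatures at 10% FDR (F-test of a dose-response against a flat model); one experiment, one call per tested protein.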

Chains of the proteins cited; added tags and fusions are not shown. Lines headed by an entry give the natural chain unless they say otherwise; changes in a name come on top.
UniProt P13498: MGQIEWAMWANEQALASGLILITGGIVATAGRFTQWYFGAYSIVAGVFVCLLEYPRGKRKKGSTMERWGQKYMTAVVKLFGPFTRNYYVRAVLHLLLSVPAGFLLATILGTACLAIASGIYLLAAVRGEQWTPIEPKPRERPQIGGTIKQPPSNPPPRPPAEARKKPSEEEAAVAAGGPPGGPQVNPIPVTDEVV
UniProt O94760: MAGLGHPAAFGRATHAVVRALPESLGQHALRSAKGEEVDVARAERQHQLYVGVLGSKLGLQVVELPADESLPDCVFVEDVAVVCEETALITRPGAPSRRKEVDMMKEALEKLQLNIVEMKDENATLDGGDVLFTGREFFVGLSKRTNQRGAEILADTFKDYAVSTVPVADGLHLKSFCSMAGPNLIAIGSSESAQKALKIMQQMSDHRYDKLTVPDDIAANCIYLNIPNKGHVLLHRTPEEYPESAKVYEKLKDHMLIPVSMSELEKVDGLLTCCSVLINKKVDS
UniProt P08574: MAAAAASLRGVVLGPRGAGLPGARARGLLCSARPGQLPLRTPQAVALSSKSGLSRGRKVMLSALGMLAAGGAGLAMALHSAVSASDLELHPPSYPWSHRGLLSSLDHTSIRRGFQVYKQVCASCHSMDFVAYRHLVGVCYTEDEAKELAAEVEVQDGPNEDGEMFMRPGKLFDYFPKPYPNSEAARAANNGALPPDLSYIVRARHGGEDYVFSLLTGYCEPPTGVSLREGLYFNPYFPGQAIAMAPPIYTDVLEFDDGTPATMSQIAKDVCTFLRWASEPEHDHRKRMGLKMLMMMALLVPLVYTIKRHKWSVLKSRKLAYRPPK
UniProt Q9HCG8: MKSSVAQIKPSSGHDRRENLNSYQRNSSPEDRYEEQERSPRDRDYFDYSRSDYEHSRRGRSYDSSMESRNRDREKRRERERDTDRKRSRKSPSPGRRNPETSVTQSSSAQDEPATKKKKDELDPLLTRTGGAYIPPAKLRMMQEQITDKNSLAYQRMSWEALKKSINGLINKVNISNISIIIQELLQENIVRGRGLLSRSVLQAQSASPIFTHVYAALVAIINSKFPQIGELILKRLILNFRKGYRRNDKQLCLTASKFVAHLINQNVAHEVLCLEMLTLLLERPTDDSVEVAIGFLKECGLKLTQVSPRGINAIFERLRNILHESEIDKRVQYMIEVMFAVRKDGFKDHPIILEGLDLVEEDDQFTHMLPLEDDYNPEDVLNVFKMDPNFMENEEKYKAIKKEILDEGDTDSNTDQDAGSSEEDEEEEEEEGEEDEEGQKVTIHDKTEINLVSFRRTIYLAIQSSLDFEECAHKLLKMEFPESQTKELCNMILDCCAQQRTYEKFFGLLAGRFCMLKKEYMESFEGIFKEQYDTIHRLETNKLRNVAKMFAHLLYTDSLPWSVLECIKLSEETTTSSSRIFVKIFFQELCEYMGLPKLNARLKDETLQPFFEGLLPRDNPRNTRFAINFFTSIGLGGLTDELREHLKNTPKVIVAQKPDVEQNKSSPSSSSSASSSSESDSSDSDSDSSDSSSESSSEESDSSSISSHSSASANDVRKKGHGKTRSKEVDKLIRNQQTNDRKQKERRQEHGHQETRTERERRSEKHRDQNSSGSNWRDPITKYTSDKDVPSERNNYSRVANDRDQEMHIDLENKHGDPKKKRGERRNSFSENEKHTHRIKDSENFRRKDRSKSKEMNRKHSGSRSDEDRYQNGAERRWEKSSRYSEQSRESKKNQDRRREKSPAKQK
UniProt Q9UHQ9: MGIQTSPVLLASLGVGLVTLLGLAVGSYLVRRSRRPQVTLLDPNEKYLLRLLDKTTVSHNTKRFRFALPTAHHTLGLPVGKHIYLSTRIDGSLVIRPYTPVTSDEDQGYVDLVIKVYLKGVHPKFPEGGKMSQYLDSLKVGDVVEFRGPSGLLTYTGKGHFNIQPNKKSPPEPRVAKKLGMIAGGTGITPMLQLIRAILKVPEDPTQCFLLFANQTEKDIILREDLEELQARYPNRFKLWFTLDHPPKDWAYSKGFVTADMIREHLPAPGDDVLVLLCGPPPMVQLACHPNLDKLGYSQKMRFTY
UniProt Q68D51: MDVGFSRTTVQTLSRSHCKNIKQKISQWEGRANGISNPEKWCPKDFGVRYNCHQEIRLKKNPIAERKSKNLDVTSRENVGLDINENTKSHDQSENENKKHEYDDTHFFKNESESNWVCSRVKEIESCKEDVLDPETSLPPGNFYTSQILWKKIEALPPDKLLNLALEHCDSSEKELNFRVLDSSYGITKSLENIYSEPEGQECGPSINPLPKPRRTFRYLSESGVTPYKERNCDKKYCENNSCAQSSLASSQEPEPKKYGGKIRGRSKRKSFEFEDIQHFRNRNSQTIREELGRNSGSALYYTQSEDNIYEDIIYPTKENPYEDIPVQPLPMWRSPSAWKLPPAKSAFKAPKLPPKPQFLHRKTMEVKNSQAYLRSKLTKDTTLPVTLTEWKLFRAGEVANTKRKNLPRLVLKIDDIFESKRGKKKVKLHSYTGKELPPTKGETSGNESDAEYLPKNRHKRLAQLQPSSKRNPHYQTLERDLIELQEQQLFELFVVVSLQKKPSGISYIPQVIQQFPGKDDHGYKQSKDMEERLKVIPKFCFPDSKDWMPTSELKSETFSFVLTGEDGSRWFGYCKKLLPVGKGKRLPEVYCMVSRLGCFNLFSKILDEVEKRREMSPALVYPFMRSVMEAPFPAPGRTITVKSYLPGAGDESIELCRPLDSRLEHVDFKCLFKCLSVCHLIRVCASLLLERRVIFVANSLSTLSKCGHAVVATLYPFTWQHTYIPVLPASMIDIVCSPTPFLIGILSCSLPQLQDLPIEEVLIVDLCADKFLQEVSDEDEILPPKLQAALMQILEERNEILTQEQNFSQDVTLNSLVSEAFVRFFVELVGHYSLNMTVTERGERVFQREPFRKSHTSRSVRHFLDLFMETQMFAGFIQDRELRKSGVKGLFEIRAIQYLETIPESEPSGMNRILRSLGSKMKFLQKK
UniProt Q9BU89: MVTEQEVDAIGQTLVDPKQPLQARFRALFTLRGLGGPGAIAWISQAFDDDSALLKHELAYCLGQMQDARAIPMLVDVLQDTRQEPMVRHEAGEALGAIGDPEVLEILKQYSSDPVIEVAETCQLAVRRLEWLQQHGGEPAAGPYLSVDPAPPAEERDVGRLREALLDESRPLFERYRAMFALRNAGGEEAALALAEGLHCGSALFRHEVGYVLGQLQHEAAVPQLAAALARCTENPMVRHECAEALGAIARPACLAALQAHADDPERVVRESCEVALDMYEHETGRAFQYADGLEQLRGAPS
UniProt Q05D32: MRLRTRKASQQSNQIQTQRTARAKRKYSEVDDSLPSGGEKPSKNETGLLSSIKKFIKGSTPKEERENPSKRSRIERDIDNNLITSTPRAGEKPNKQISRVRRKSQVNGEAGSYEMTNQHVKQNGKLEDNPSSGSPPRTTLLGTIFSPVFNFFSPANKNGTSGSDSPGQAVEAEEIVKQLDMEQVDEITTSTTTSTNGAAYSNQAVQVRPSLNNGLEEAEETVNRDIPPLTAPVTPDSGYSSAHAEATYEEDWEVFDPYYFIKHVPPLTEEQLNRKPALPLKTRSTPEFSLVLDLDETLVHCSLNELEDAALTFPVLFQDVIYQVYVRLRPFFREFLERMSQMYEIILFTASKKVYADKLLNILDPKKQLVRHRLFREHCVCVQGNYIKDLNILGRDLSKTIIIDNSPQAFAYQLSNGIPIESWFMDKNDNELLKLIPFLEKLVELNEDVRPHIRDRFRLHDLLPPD
UniProt Q92466: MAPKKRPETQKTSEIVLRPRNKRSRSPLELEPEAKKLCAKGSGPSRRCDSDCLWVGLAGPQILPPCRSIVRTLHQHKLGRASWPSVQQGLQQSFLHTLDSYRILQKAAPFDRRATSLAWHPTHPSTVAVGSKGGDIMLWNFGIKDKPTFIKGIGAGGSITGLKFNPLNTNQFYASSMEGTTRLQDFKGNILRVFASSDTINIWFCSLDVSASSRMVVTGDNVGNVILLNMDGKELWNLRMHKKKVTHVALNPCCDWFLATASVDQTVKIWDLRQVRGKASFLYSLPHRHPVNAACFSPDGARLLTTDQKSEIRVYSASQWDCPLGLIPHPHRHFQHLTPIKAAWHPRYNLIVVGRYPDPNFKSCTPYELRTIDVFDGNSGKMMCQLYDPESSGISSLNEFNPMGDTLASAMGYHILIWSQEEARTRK
UniProt Q9UI36: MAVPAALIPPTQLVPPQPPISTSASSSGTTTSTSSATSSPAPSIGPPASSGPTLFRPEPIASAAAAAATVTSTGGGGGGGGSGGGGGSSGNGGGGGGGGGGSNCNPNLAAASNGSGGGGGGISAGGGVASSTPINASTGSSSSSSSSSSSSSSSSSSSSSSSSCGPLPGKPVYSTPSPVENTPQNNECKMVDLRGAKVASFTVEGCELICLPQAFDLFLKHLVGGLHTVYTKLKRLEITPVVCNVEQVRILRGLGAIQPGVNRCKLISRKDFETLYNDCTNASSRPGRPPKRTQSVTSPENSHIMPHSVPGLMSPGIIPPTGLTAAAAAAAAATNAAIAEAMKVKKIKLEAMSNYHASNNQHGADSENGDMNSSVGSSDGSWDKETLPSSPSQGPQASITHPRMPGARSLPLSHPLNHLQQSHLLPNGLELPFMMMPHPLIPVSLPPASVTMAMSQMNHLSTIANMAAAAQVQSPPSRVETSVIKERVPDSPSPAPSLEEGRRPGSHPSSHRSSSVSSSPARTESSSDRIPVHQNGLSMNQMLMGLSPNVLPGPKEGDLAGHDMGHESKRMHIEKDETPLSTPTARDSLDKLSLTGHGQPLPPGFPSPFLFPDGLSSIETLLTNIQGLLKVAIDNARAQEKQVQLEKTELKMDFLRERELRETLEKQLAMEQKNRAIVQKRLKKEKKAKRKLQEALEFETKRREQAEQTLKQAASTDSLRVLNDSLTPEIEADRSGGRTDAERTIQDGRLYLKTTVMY
UniProt P26196: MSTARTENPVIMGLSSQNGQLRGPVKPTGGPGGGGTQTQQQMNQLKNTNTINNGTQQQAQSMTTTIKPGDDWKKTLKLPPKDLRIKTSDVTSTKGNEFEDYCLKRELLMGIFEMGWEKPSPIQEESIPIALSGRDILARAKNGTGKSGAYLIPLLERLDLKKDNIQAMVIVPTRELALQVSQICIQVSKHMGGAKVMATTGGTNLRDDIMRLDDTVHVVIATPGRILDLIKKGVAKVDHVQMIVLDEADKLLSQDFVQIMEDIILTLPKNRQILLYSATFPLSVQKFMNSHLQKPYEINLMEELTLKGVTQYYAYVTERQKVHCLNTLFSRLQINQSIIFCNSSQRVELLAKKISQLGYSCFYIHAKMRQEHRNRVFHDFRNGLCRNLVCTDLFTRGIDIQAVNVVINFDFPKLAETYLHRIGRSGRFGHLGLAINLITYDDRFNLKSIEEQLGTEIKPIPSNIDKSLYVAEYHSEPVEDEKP
UniProt Q16850: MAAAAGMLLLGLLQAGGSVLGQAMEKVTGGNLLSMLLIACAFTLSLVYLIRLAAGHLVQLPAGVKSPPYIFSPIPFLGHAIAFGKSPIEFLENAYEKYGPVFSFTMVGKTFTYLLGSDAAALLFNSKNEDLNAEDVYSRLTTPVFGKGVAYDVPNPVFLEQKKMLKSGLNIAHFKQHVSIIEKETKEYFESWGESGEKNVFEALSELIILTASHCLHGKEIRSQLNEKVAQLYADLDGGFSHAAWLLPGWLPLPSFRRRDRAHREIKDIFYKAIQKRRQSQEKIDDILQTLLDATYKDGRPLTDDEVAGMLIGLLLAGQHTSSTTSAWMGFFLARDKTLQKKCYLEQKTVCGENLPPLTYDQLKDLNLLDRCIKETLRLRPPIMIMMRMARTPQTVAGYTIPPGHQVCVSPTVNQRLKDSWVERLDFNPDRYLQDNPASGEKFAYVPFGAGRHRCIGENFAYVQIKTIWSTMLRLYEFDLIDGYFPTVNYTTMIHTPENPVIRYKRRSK
UniProt Q9UBR2: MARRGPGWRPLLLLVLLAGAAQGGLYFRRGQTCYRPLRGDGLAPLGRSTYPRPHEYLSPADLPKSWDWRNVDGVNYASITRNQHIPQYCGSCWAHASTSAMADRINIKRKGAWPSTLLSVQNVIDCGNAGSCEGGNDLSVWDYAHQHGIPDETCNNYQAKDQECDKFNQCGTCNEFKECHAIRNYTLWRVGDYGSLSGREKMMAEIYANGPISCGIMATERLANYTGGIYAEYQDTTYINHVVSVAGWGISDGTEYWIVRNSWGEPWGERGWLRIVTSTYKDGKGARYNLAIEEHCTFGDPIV
UniProt P32929, whole entry: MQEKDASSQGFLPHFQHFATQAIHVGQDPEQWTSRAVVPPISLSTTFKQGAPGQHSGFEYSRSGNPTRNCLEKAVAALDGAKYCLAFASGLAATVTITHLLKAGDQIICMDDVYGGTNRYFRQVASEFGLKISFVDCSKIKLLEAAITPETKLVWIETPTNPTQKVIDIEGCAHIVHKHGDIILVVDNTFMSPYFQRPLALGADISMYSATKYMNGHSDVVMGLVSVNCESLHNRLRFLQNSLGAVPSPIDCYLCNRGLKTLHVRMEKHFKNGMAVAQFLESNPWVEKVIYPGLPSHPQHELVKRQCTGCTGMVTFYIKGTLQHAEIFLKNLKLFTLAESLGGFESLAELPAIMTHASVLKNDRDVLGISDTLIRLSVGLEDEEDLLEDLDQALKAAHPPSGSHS

| Target | dose-dependent thermal stabilisation call |
| --- | --- |
| CYBA (UniProt P13498) | inactive: 0 |
| DDAH1 (UniProt O94760) | inactive: 0 |
| DNAJB14 (UniProt Q8TBM8) | inactive: 0 |
| CTCF (UniProt P49711) | inactive: 0 |
| CYC1 (UniProt P08574) | inactive: 0 |
| DCP2 (UniProt Q8IU60) | inactive: 0 |
| CWC22 (UniProt Q9HCG8) | inactive: 0 |
| DGCR8 (UniProt Q8WYQ5) | inactive: 0 |
| CYB5R1 (UniProt Q9UHQ9) | inactive: 0 |
| DIDO1 (UniProt Q9BTC0) | inactive: 0 |
| DOPEY2 (UniProt Q9Y3R5) | inactive: 0 |
| DDX10 (UniProt Q13206) | inactive: 0 |
| DENND2C (UniProt Q68D51) | inactive: 0 |
| DOHH (UniProt Q9BU89) | inactive: 0 |
| CTDSPL2 (UniProt Q05D32) | inactive: 0 |
| DDX58 (UniProt O95786) | inactive: 0 |
| DDB2 (UniProt Q92466) | inactive: 0 |
| DDX60 (UniProt Q8IY21) | inactive: 0 |
| CXCR4 (UniProt P61073) | inactive: 0 |
| DIP2A (UniProt Q14689) | inactive: 0 |

| Target | dose-dependent thermal stabilisation call |
| --- | --- |
| DKFZP761E198 | inactive: 0 |
| DOM3Z (UniProt O77932) | inactive: 0 |
| DHX9 (UniProt Q08211) | inactive: 0 |
| CTBS (UniProt Q01459) | inactive: 0 |
| DCTD (UniProt P32321) | inactive: 0 |
| DACH1 (UniProt Q9UI36) | inactive: 0 |
| DDX6 (UniProt P26196) | inactive: 0 |
| DDX46 (UniProt Q7L014) | inactive: 0 |
| CXADR (UniProt P78310) | inactive: 0 |
| CTPS2 (UniProt Q9NRF8) | inactive: 0 |
| DDX27 (UniProt Q96GQ7) | inactive: 0 |
| CSRP2BP (UniProt Q9H8E8) | inactive: 0 |
| DHX57 (UniProt Q6P158) | inactive: 0 |
| DHX40 (UniProt Q8IX18) | inactive: 0 |
| CYP51A1 (UniProt Q16850) | inactive: 0 |
| DHX33 (UniProt Q9H6R0) | inactive: 0 |
| DDX5 (UniProt P17844) | inactive: 0 |
| CTSZ (UniProt Q9UBR2) | inactive: 0 |
| CTH (UniProt P32929) | inactive: 0 |
| DHPS (UniProt P49366) | inactive: 0 |

2 records drawn at random from the list so far:

| Target | dose-dependent thermal stabilisation call |
| --- | --- |
| DHPS (UniProt P49366) | inactive: 0 |
| CYP51A1 (UniProt Q16850) | inactive: 0 |

Source: the supplement of paper PMC7666118
